“And” between values parts separate entries of the source, which are not always exact repeats. Equal entries are not always repeated. The list shows a part of the results. Single values are uncertain here, since repeats match poorly.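 HEK293T cells were given each compound shortly before transfection with a reporter in which red mCherry is followed by the SARS-CoV-2 frameshift element and then GFP in the −1 frame, so GFP appears only after frameshifting.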
Key:
[1] = test system: SARS-CoV-2 -1 PRF reporter mCherry-FSE-GFP(-1); assay: mCherry (red) intensity as percent of control; higher = higher upstream reporter expression; settings: 10 µM; 24 h; HEK293T
[2] = test system: SARS-CoV-2 -1 PRF reporter mCherry-FSE-GFP(-1); assay: percent effect, decrease of GFP/mCherry ratio (-1 PRF reporter) relative to controls; higher = stronger frameshift inhibition; settings: 10 µM; 24 h; HEK293T

SMILES	mCherry [1]	percent effect [2]
CCCCNc1ccc(C(=O)OCCOCCOCCOCCOCCOCCOCCOCCOCCOC)cc1 [benzonatate]	92.1%	-1.83%
CC[C@H](C)[C@H](N)C1=N[C@H](C(=O)N[C@@H](CC(C)C)C(=O)N[C@H](CCC(=O)O)C(=O)N[C@H](C(=O)N[C@H]2CCCCNC(=O)[C@H](CC(N)=O)NC(=O)[C@@H](CC(=O)O)NC(=O)[C@H](Cc3cnc[nH]3)NC(=O)[C@@H](Cc3ccccc3)NC(=O)[C@H]([C@@H](C)CC)NC(=O)[C@@H](CCCN)NC2=O)[C@@H](C)CC)CS1 [bacitracin]	100%	-10.6%
N[C@@H](CCC(=O)O)C(=O)N[C@@H](Cc1c[nH]c2ccccc12)C(=O)O [oglufanide]	93%	-3.58%
OCc1cc(C(O)CNCCCCCCOCCCCc2ccccc2)ccc1O (stereo not drawn) [salmeterol]	33.9%	-7.92%
CC(=O)Nc1ccc(OCCOCCOc2ccc(NC(C)=O)cc2)cc1 [diamfenetide]	78.8%	-3.87%
CN1CCCCC1CCN1c2ccccc2Sc2ccc(S(C)(=O)=O)cc21 (stereo not drawn) [sulforidazine]	81%	-1.33%
NC(=O)NNc1ccccc1 [phenicarbazide]	102%	-3.04%
OCCOCCN1CCN(C2=Nc3ccccc3Sc3ccccc32)CC1 [quetiapine]	97.4% and 87.7%	-2.72% and -0.147%
CN[C@H](CC(C)C)C(=O)N[C@H]1C(=O)N[C@@H](CC(N)=O)C(=O)N[C@H]2C(=O)N[C@H]3C(=O)N[C@H](C(=O)N[C@H](C(=O)O)c4cc(O)cc(O)c4-c4cc3ccc4O)[C@H](O[C@H]3C[C@](C)(N)[C@@H](O)[C@H](C)O3)c3ccc(c(Cl)c3)Oc3cc2cc(c3O[C@@H]2O[C@H](CO)[C@@H](O)[C@H](O)[C@H]2O[C@H]2C[C@](C)(NCc3ccc(-c4ccc(Cl)cc4)cc3)[C@@H](O)[C@H](C)O2)Oc2ccc(cc2Cl)[C@H]1O [oritavancin]	112%	-3.81%
